Results from PMC11519374.
These are yes or no findings as the source states them, for the method shown. In cells and extracts the contact can be indirect. A yes stands for co-enrichment or nearness to the bait. Other partners may have been found.

By UniProt entry, the sequences of proteins in these tests, tags left out. Where a name states a change or a piece, a line headed by the entry shows the natural chain unless it says otherwise.
UniProt Q9BST9: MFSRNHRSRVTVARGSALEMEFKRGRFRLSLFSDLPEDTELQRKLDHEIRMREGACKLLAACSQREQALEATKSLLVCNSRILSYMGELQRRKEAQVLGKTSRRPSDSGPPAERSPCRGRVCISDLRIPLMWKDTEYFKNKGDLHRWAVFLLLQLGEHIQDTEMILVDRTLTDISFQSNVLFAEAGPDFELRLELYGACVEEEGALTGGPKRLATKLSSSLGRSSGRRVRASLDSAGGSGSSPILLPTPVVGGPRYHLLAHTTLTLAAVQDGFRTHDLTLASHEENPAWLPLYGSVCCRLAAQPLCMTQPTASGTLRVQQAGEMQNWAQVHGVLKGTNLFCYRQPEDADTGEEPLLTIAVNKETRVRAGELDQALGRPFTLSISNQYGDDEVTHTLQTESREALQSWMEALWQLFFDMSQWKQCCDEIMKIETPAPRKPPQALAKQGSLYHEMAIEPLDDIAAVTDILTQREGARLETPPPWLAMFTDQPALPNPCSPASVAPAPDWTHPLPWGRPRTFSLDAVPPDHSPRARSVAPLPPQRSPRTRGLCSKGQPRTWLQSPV
UniProt P61586: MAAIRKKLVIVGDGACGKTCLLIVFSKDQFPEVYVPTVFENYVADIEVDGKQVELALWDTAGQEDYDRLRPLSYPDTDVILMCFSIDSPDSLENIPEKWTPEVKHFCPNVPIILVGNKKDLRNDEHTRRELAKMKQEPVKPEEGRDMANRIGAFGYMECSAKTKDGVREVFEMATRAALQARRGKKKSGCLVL

Molecular target: GST-rhotekin-Rho binding domain (UniProt Q9BST9)
Test: affinity purification with mass spectrometry; purified GST-RBD on beads incubated with lysates of control and TBC1D3C-expressing U2OS cells, 3 h at 4°C; bands of Rho GTPase size cut from Coomassie-stained SDS-PAGE; only the target purified

binding: binds
Substance: RhoA (from UniProt P61586 1-193)
